Source: PubChem BioAssay AID485314 (National Center for Advancing Translational Sciences (NCATS), 2010)
Among all 340,000 compounds or so, about 4,500 (1.3%) were called active. This list was built around the results that the source calls inconclusive (neither active nor inactive); the mix of calls is not that of the screen. Calls come from the whole dose curve; as a rule, active = well fitted inhibition curve with a large enough effect; inconclusive = small, poorly fitted or top-dose-only effect, or another doubt; inactive = no such curve, though single readings can be large or run the other way. A potency beside an inconclusive call is a rough fit, not a confirmed value.

molecular target: DNA polymerase beta (Homo sapiens) (UniProt P06746); assay: qHTS Assay for Inhibitors of DNA Polymerase Beta; conditions: Pol beta primer extension/strand displacement, fluorescence kinetic; series mostly up to 114 µM
Method in brief: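 Pol beta (10 nM) and compounds were preincubated 15 min at room temperature, then 50 nM substrate (final) started primer extension/strand displacement. Reads were taken at 0 and 10 min; concentration-response data were fitted to a four-parameter Hill equation.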
Potency is the fitted concentration of half-maximal effect.

Q: Which Potency does the source give for `N#Cc1ccsc1NC(=O)COc1ccc(-c2nnco2)cc1` here?
A: inconclusive: 39.8 µM [inhibitor, partial curve, poor fit]

Q: Which Potency does the source give for `O=C(NCc1ccccc1)c1ccc2c(c1)CCN2S(=O)(=O)c1ccc(Cl)cc1` here?
A: inactive

Q: With `CC(=O)Nc1ccc(S(=O)(=O)N(C)CC(=O)OCC(=O)N2CCCCCC2)cc1` as the compound, how does the Potency read?
A: inactive

Q: `COc1ccc(C2C(Oc3ccccc3C)C(=O)N2Cc2ccc(F)cc2)cc1OC` (stereo not given) was tested. Which Potency did it give?
A: inconclusive: 89.1 µM [inhibitor, single point]

Q: `CC(=O)c1ccc(NC(=O)C2CCCN2S(=O)(=O)c2cccc3cccnc23)cc1` (stereo not given) was tested. Which Potency did it give?
A: inconclusive: 39.8 µM [inhibitor, single point]

Q: `CCCc1ccc(C(=O)NNC(=O)c2ccc(Br)cc2)cc1` was tested. Which Potency did it give?
A: active: 44.7 µM

Q: For `O=C(CC1Nc2ccccc2NC1=O)NC1CCCCC1` (stereo not given), which Potency is on record?
A: inactive

Q: With `CCOC(=O)c1cc([N+](=O)[O-])c([N+](=O)[O-])cc1NC(C)=O` as the compound, how does the Potency read?
A: inconclusive: 50.1 µM [inhibitor, partial curve]

Q: Which Potency does the source give for `CCOC(=O)c1oc2c(CN3CCN(C)CC3)c(O)ccc2c(=O)c1-c1ccccc1OC` here?
A: inconclusive: 89.1 µM [inhibitor, single point]

Q: How did the Potency turn out when `CN1C(=O)/C(=C\c2ccccc2OCc2ccccc2)SC1=S` was run?
A: inactive

Q: How did the Potency turn out when `COc1ccc(-c2csc(-c3ccc(O)cc3)n2)cc1` was run?
A: inconclusive: 0.282 µM [inhibitor, full curve]

Q: `O=C(O)c1ccc(N/N=C/c2cn(-c3ccccc3)nc2-c2cccs2)cc1` was tested. Which Potency did it give?
A: inconclusive: 79.4 µM [inhibitor, single point]

Q: For `CCc1nc2ccc(C(=O)O)cc2nc1CC`, which Potency is on record?
A: inactive

Q: `CCN(CC)c1cc(C)c2cc(NC(=O)CNC(C)=O)ccc2n1` was tested. Which Potency did it give?
A: inconclusive: 0.141 µM [inhibitor, full curve, poor fit]

Q: For `N=C1S/C(=C\c2ccco2)C(=O)N1c1ccc2c(c1)OCO2`, which Potency is on record?
A: active: 20 µM

Q: Which Potency does the source give for `Cc1cccc(CCNC(=O)c2cc3c(s2)-c2c(C)cccc2OC3)c1` here?
A: inconclusive: 31.6 µM [inhibitor, partial curve]

Q: `Cc1ccc(Nc2nc(Cl)c(C=O)s2)cc1Cl` was tested. Which Potency did it give?
A: inconclusive: 89.1 µM [inhibitor, single point]

Q: How did the Potency turn out when `O=C(Cc1ccccc1)N/N=C/c1ccc(OC(=O)/C=C\c2ccco2)cc1` was run?
A: inactive

Q: How did the Potency turn out when `O=C(CSc1ccc(/C=N/NC(=O)c2cccc(F)c2)o1)Nc1ccccc1` was run?
A: inconclusive: 1.26 µM [inhibitor, single point]
